PubChem BioAssay AID1508597, Cure First – 2020

- Purpose: 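Knock-downs altering ovarian cancer cell survival with or without PARP inhibitor rucaparib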 (primary screen)
- Cells: human ovarian carcinoma lines grown from tumours: OCI-P5x (papillary serous) and OCI-C5x (clear cell)
- Reagent: siRNA pool against human genes, 1.25 pmol siRNA per well
- Duration: 72 h or 96 h, depending on the cell culture
- Conditions: rucaparib 20 µM (about IC30) or vehicle, present until read-out
- Rucaparib or vehicle: Vehicle
- Cell line: OCI-C5x (clear cell)
- Detection: 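Luminescent ATP-based viability assay read 72 or 96 h after transfection, depending on culture, given as normalised percent viability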
- Reading the numbers: viability, normalised: higher = more viable cells remaining
- Active means: 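a well counts as a hit if its normalised viability is under 80 percent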
- Calls: active = viability under 80%; inactive = viability 80% or more
Shown is a random part of the about 2,100 reagents, in one setting of the screen. 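Calls flag viability under 80% in either arm, not effects specific to rucaparib; the reference for percent is not stated.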 Unmarked entries are inactive. A reagent listed more than once was tested more than once; the source does not tell the runs apart. Not stated in the record: the 100% reference.

Target gene | technical replicate | viability, normalised (%)
DDX23 | 1 | 28.2 (active)
DDX23 | 2 | 48.6 (active)
DDX23 | 3 | 36.6 (active)
ELAC1 | 1 | 55.1 (active)
ELAC1 | 2 | 46.8 (active)
ELAC1 | 3 | 44 (active)
MEAF6 | 1 | 51.7 (active)
MEAF6 | 2 | 60.2 (active)
MEAF6 | 3 | 63.6 (active)
MAPK12 | 1 | 59.8 (active)
MAPK12 | 2 | 51.6 (active)
MAPK12 | 3 | 53.7 (active)
KHK | 1 | 50 (active)
KHK | 2 | 51.3 (active)
KHK | 3 | 45.4 (active)
TP73 | 1 | 29.3 (active)
TP73 | 2 | 48.8 (active)
TP73 | 3 | 39.6 (active)
JAK2 | 1 | 47.7 (active)
JAK2 | 1 | 83.5
JAK2 | 2 | 89.6
JAK2 | 2 | 58.2 (active)
JAK2 | 3 | 56.8 (active)
JAK2 | 3 | 97.8

A run of entries from the list above:
Target gene | technical replicate | viability, normalised (%)
KHK | 2 | 51.3 (active)
KHK | 3 | 45.4 (active)
TP73 | 1 | 29.3 (active)

The results go on.
Target gene | technical replicate | viability, normalised (%)
NHEJ1 | 1 | 58.7 (active)
NHEJ1 | 1 | 29.7 (active)
NHEJ1 | 2 | 31.4 (active)
NHEJ1 | 2 | 68.5 (active)
NHEJ1 | 3 | 40.7 (active)
NHEJ1 | 3 | 49.1 (active)
KPNA1 | 1 | 54.4 (active)
KPNA1 | 2 | 45.9 (active)
KPNA1 | 3 | 39.4 (active)
WDR5 | 1 | 44.6 (active)
WDR5 | 2 | 42.2 (active)
WDR5 | 3 | 31.1 (active)
NFRKB | 1 | 61.5 (active)
NFRKB | 2 | 44.2 (active)
NFRKB | 3 | 63.8 (active)
